Data as given in PMC11645128.
Results are given in words; binding and its absence hold for the method and conditions named. In cells and extracts the contact can be indirect. Some binding calls cover weakened binding; strength is not graded here. Sequences can lack the tags named with a protein.

By UniProt entry, the sequences of proteins in these tests, tags left out.
UniProt O35973: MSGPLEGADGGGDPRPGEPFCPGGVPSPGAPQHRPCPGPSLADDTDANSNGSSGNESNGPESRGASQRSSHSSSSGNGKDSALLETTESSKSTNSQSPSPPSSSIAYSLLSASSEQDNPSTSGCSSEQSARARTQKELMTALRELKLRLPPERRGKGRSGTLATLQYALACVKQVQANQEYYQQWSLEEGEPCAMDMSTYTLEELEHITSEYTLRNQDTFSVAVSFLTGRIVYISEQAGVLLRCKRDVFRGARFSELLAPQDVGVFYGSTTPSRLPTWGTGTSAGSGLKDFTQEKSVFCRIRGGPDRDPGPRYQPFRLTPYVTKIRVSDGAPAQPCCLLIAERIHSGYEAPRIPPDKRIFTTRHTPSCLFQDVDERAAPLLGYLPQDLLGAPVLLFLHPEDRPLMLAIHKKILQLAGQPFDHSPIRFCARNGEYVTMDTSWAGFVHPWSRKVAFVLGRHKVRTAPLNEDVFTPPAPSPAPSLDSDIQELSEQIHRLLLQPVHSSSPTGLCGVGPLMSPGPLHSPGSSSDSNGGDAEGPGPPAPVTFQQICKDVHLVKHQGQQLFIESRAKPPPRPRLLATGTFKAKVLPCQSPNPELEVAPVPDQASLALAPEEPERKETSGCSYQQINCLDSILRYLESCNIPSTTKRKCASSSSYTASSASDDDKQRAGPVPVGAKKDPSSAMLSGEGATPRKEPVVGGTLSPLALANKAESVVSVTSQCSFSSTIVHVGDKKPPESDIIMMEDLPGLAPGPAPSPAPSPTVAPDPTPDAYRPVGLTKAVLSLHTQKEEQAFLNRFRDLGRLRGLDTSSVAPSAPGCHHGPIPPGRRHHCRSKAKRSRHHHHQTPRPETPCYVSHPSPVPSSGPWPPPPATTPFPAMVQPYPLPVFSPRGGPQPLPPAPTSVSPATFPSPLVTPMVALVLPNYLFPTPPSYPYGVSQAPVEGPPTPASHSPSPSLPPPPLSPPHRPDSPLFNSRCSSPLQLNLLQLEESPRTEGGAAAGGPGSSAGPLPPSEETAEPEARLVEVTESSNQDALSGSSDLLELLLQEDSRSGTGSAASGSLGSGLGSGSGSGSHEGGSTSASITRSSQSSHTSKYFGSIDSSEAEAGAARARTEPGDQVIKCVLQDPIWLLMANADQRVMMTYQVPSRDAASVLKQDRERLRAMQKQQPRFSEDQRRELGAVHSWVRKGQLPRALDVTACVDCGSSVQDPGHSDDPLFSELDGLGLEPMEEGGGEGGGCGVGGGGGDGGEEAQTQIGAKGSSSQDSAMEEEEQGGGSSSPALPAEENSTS

Target: Myc-tagged mouse Per1 (wild type) (mouse) (UniProt O35973)
Assay: co-IP; COS7 cells co-transfected with Myc-Per and Flag-Cry expression vectors; whole-cell extracts precipitated with anti-MYC antibody on protein G-Sepharose, 4 °C, 2 h; western blotting

| binding | Binder |
| --- | --- |
| binds | Flag-tagged Cry1 (protein, UniProt P97784 1-606) MGVNAVHWFRKGLRLHDNPALKECIQGADTIRCVYILDPWFAGSSNVGINRWRFLLQCLEDLDANLRKLNSRLFVIRGQPADVFPRLFKEWNITKLSIEYDSEPFGKERDAAIKKLATEAGVEVIVRISHTLYDLDKIIELNGGQPPLTYKRFQTLVSKMEPLEMPADTITSDVIGKCMTPLSDDHDEKYGVPSLEELGFDTDGLSSAVWPGGETEALTRLERHLERKAWVANFERPRMNANSLLASPTGLSPYLRFGCLSCRLFYFKLTDLYKKVKKNSSPPLSLYGQLLWREFFYTAATNNPRFDKMEGNPICVQIPWDKNPEALAKWAEGRTGFPWIDAIMTQLRQEGWIHHLARHAVACFLTRGDLWISWEEGMKVFEELLLDADWSINAGSWMWLSCSSFFQQFFHCYCPVGFGRRTDPNGDYIRRYLPVLRGFPAKYIYDPWNAPEGIQKVAKCLIGVNYPKPMVNHAEASRLNIERMKQIYQQLSRYRGLGLLASVPSNSNGNGGLMGYAPGENVPSCSSSGNGGLMGYAPGENVPSCSGGNCSQGSGILHYAHGDSQQTHSLKQGRSSAGTGLSSGKRPSQEEDAQSVGPKVQRQSSN |
| binds | Flag-tagged Cry2 (protein, UniProt Q9R194 1-592) MAAAAVVAATVPAQSMGADGASSVHWFRKGLRLHDNPALLAAVRGARCVRCVYILDPWFAASSSVGINRWRFLLQSLEDLDTSLRKLNSRLFVVRGQPADVFPRLFKEWGVTRLTFEYDSEPFGKERDAAIMKMAKEAGVEVVTENSHTLYDLDRIIELNGQKPPLTYKRFQALISRMELPKKPAVAVSSQQMESCRAEIQENHDDTYGVPSLEELGFPTEGLGPAVWQGGETEALARLDKHLERKAWVANYERPRMNANSLLASPTGLSPYLRFGCLSCRLFYYRLWDLYKKVKRNSTPPLSLFGQLLWREFFYTAATNNPRFDRMEGNPICIQIPWDRNPEALAKWAEGKTGFPWIDAIMTQLRQEGWIHHLARHAVACFLTRGDLWVSWESGVRVFDELLLDADFSVNAGSWMWLSCSAFFQQFFHCYCPVGFGRRTDPSGDYIRRYLPKLKGFPSRYIYEPWNAPESVQKAAKCIIGVDYPRPIVNHAETSRLNIERMKQIYQQLSRYRGLCLLASVPSCVEDLSHPVAEPGSSQAGSISNTGPRALSSGPASPKRKLEAAEEPPGEELTKRARVTEMPTQEPASKDS |
